From article PMC12337289, “Cryo-EM structure and polar assembly of the PS2 S-layer of Corynebacterium glutamicum” (Proceedings of the National Academy of Sciences of the …, 2025)
No constants are given. Whether binding was seen depends on the method and setting. Some results given as binding are weak or reduced against the parent protein; the word gives no strength.

Biological target: PS2 full-length variant (PS2^FL; residues 30 to 510), recombinant (C. glutamicum) (UniProt Q04985)
Assay: negative-stain electron microscopy of isolated S-layer sheets; insoluble fraction of E. coli expressing PS2^FL, associated with vesicle-like structures

binding: binds
B1: PS2 full-length variant (PS2^FL; residues 30 to 510), recombinant (protein, UniProt Q04985 30-510)
chain: AQETNPTFNITNGFNDADGSTIQPVGPVNHTEETLRDLTDSTGAYLEEFQNGTVEEIVEAYLQVQASADGFDPSEQAAYEAFEAARVRASQELAASAETITKTRESVAYALKVDQEATAAFEAYRNALRDAAISINPDGSINPDTSINLLIDAANAANRTDRAEIEDYAHLYTQTDIALETPQLAYAFQDLKALQAEVDADFEWLGEFGIDQEDGNYVQRYHLPAVEALKAEVDARVAAIEPLRADSIAKNLEAQKSDVLVRQLFLERATAQRDTLRVVEAIFSTSARYVELYENVENVNVENKTLRQHYSALIPNLFIAAVANISELNAADAEAAAYYLHWDTDLATNDEDEAYYKAKLDFAIETYAKILFNGEVWQEPLAYVQNLDAGARQEAADREAARAADEAYRAEQLRIAQEAADAQKAIAEALAKEAEGNNDNSSDNTETGSSDIGSWGPFAAIAAIIAAIAAIFPFLSGIVKF
